Test systems include C10orf26 (human); C10orf35 (human); C10orf46 (human); C11orf51 (human); C11orf53 (human); C11orf58 (human).
Test in all cases: protein microarray (ProtoArray v5.0), streptavidin-Alexa Fluor 647
Conditions in all cases: 3'-biotin; 20 mM Tris (pH 7.5), 5 mM MgCl2, 100 mM KCl, 0.1% Tween-20, A/T-rich and random oligonucleotide blockers; temperature not stated; high values mean tight binding

Assay [1] concerns C-terminal-binding protein 1 (human).
Assay [2] concerns C-type lectin domain family 12 member A (human).
For assay [3], the system named is C-type lectin domain family 2 member D (human).
The target in the next assay is T1, C10orf58 (UniProt Q9BRX8).
T1 sequence: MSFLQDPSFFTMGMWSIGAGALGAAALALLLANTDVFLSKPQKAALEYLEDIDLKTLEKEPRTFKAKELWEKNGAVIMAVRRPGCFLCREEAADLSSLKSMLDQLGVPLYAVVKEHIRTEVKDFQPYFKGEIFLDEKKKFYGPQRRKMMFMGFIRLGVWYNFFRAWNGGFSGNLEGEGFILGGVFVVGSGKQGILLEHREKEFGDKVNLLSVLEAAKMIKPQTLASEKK

The list shows a part of the results. For some of these results: The exact form of the protein is not confirmed.

For “GGGGACAGGGGTATGGGGAGGGG [G4-3 biotinylated (CtG)]”, the binding signal is -0.342 z-score in assay [1]; -0.329 z-score in assay [2]; -0.312 z-score in assay [3]; -0.33 z-score in the assay on C10orf26 (human); -0.333 z-score in the assay on C10orf35 (human); -0.326 z-score with C10orf46 (human). In addition, the binding signal with C10orf58 was -0.314 z-score; in the assay with C11orf51 (human), -0.341 z-score; in the assay on C11orf53 (human), -0.319 z-score; with C11orf58 (human) it was -0.337 z-score.

The values above are taken from paper PMC5996148.
